In patent US20040072753A1, “Peptides for use in the treatment of alzheimer's disease” (priority 2000, published 2004):
For part of these data: At least one peptide structure holds a part that was inferred or is arguable (an end, a ring closure or a residue). For part of these data: For at least one compound, name, drawing or mass did not settle the structure. Where a SMILES comes first, the peptide text is derived from it.

Legend:
[1] = tested on: Human NT-2 neurons; assay: Immunoassay of ir-pSAβ and ir-Aβ in extracts of NT-2 neurons exposed to Aβ 17-35 derivatives; assay type: cell-based
Protocol: To establish whether Aβ is phosphorylated in the Alzheimer's brain, Alzheimer disease brain sections were obtained from Novagen Inc (Madison, Wis., USA. Cat No: 70298-3; Lot No: A301036). Sections were deparaffinised and extracted in DEA buffer supplemented with 0.1 mM sodium vanadate. Extracts from NT-2 neurons were also prepared using the same buffer. Using a polyclonal anti-AB 15-30 antiserum plus Protein-A agarose, the Aβ was immunoprecipitated. The resultant extracts were further purified using a Sep-Pak C18 extraction step. Columns were pre-wetted with methanol and 0.5M acetic acid and the samples were applied in 20% acetonitrile in 0.1% TFA. […] After drying under a stream of nitrogen, samples were resuspended in appropriate buffer. For SDS-PAGE analysis, samples were resuspended in gel loading buffer and run on a 15% acrylamide gel. After immunoblotting onto nitrocellulose membranes, the blots were stained with anti-Aβ, anti-phosphoserine, anti-phosphotyrosine or anti-phosphothreonine antibodies. Bands were visualized with anti-mouse or anti-rabbit IgG-HRP conjugates and TMB membrane substrate. […] ELISA plates were coated with anti-phosphoserine antiserum for pSAβ determination and blocked with 5% dried milk. […] After washing to remove unbound material, ir-pSAβ was detected using an anti-rabbit IgG-HRP conjugate and TMB substrate. […]

[2] = molecular target: T1, catalase EC 1.11.1.6 from human erythrocytes (Homo sapiens, UniProt P04040); assay: Catalase enzyme activity, inhibition by Aβ peptides; assay type: biochemical; settings: test peptides 2 μM
T1 construct: catalase EC 1.11.1.6 from human erythrocytes (Sigma, Dorset, UK) was used; purchased Sigma, Dorset, UK; host or cells: human erythrocytes
T1 sequence (P04040 2-527 limits assumed): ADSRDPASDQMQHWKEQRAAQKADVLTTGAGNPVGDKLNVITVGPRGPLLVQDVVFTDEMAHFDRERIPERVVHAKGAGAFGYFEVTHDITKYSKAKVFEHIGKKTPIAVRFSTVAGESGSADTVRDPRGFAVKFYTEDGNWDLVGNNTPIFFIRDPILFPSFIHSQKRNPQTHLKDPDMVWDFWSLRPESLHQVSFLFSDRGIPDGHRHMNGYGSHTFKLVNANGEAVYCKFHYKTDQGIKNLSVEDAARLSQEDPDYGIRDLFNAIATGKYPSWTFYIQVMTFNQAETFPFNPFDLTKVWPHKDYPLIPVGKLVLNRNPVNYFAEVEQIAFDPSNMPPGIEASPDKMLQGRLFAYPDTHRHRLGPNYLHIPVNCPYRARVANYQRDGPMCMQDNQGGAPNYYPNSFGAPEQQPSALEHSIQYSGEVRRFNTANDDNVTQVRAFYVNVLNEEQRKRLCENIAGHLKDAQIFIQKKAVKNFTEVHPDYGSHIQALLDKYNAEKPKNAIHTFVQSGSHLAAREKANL
Protocol: For catalase activity catalase EC 1.11.1.6 from human erythrocytes (Sigma, Dorset, UK) was used for all incubation experiments. Activity of Catalase (5kU I^−1) incubated with test peptides (2 μM) was determined after incubation in 60 mM sodium-potassium phosphate buffer at 37° C. in a total volume of 100 μl. After incubation catalase activity was determined by mixing 50 μl sample with 50 μl substrate (6.5 μmol H2O2 in phosphate buffer) for 60 secs, adding 100 μl of 32.4 mM ammonium molybdate and measurement of absorbance change at 405 nm. Catalase activity was calculated from a standard curve (0-10OkU I^−1) using purified human catalase of known activity (Milton, Biochem. J. 344: 293-296 (1999)).

Structure (SMILES) | effect on the increase in ir-Aβ levels when cells were treated with Aβ [1] | effect on the increase in ir-pSAβ levels when cells were treated with Aβ [1] | block of the inhibition of catalase enzyme activity by Aβ 1-42 [2] | block of the inhibition of catalase enzyme activity by Aβ fragments containing residues 25-35 [2] | effect on the inhibition of catalase enzyme activity by Aβ fragments [2]
Cn1cnc2c(NCc3ccccc3)nc(NCCO)nc21 [olomoucine, reference compound] | but not | prevented |  |  | 
CC(C)C[C@H](N)C(=O)N[C@@H](Cc1ccccc1)C(=O)N1CCC[C@H]1C(=O)N[C@@H](CCCNC(=N)N)C(=O)N[C@@H](Cc1ccc(O)cc1)C(=O)N[C@@H](Cc1ccc(O)cc1)C(=O)N1CCC[C@H]1C(=O)N[C@@H](CCC(=O)O)C(=O)N[C@@H](Cc1ccc(O)cc1)C(=O)N[C@@H](Cc1c[nH]cn1)C(=O)O [AβAS(F) 27-36] (H-LFPRYYPEYH-OH) |  |  | able to block | able to block | 
CC(C)C[C@H](NC(=O)[C@H](CC(C)C)NC(=O)[C@H](CCCNC(=N)N)NC(=O)[C@H](CCCCN)NC(=O)[C@H](CCCCN)NC(=O)[C@H](Cc1c[nH]cn1)NC(=O)[C@H](CC(N)=O)NC(=O)[C@H](Cc1ccccc1)NC(=O)[C@@H](NC(=O)[C@@H](N)C(C)C)C(C)C)C(=O)O [AβAS(F) 14-23] (H-VVFNHKKRLL-OH) |  |  | no effect |  | no effect
